No constants are given. Whether binding was seen depends on the method and setting. Some results given as binding are weak or reduced against the parent protein; the word gives no strength.
Tests used:
[1] = biological target: human LAMA4 G domain LG1-5 displayed on 293 cells (pDisplay) (human) (UniProt Q16363); experiment: flow cytometry on LAMA4-fragment-displaying 293 cells
[2] = biological target: human LAMA4 LG4-5 fragment displayed on 293 cells (pDisplay) (human) (UniProt Q16363); experiment: as above
[3] = biological target: human LAMA4 G domain LG1-5 displayed on 293 cells (pDisplay) (human) (UniProt Q16363); experiment: flow cytometry, serial dilution on LAMA4-displaying 293 cells
[4] = biological target: human LAMA4 G domain LG1-5 displayed on 293 cells (pDisplay) (human) (UniProt Q16363); experiment: flow cytometry on 293 cells displaying LAMA4 fragments (pDisplay)
[5] = biological target: human LAMA4 LG4-5 fragment displayed on 293 cells (pDisplay) (human) (UniProt Q16363); experiment: as above
[6] = biological target: human LAMA4 G domain LG1-5 displayed on 293 cells (pDisplay) (human) (UniProt Q16363); experiment: flow cytometry on LAMA4-displaying 293 cells, binding antibody 13G10 in the presence of blocking antibodies (6C12, 13G10, 15F7, mouse IgG1)

By UniProt entry, the sequences of proteins in these tests, tags left out. Where a name states a change or a piece, a line headed by the entry shows the natural chain unless it says otherwise.
UniProt Q16363: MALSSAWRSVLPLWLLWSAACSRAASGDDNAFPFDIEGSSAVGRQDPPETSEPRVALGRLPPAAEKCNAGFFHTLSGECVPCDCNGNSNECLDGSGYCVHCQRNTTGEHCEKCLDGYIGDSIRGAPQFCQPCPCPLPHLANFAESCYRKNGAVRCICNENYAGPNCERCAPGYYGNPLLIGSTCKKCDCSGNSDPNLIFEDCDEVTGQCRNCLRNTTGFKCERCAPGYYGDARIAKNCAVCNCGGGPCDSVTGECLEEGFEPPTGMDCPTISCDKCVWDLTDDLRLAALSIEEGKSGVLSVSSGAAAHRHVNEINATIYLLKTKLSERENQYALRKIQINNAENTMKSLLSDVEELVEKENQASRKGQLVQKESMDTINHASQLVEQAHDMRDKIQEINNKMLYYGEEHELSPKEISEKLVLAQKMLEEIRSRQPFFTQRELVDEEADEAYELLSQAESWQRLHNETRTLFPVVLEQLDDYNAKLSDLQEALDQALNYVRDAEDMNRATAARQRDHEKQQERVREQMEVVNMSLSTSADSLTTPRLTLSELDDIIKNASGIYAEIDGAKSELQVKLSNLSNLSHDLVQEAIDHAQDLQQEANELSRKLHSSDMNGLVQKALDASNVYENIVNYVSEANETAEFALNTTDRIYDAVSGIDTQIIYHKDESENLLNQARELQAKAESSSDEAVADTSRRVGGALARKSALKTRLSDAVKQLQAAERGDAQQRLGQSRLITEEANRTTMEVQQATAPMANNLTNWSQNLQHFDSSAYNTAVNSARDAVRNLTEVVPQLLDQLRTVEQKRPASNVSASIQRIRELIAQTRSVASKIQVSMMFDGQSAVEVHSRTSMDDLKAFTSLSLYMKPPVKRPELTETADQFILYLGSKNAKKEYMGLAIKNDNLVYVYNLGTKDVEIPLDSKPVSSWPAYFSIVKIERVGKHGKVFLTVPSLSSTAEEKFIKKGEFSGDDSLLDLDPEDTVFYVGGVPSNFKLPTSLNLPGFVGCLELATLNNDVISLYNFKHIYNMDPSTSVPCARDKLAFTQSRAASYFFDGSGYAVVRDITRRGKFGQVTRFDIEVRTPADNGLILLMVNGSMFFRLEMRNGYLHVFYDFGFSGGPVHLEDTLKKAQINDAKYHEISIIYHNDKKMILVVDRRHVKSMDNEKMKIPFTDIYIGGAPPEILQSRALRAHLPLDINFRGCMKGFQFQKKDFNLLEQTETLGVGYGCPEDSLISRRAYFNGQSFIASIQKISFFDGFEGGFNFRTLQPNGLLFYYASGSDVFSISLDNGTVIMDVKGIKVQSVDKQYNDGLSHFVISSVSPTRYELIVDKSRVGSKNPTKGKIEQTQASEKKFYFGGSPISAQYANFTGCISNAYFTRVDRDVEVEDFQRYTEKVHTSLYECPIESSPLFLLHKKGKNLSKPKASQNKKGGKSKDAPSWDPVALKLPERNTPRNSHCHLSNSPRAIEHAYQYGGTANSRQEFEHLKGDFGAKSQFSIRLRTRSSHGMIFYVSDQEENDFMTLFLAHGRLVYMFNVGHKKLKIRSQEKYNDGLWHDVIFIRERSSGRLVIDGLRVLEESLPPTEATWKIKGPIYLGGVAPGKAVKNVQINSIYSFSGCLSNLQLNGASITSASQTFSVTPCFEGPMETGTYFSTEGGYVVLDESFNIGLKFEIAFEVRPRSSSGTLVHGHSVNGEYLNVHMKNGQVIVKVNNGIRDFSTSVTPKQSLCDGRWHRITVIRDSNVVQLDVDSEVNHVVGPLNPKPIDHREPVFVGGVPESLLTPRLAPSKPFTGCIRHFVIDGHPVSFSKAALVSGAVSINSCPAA

Measured: binding

B1: mouse monoclonal antibody 13G10 (antibody, V domains shown)
VH: QVQLQQSGAELARPGASVKLSCKASGYTFTNYGISWVKQRTGQGLEWIGAIYPRSGNTYYNEKFKGKATLTADKSSSTAYMELRSLTSEDSAVYFCARERDYGSSYALDYWGQGTSVTVSS
VL: DIQMTQSSSSFSVSLGDRVTITCKASEDIYNRLAWYQQKPGNAPRLLISGATSLETGVPSRFTGSGSGKDYTLSITSLQTEDVATYYCQQYWSPPRTFGGGTKLEIKR
binds: all assays above
